Assay [1] concerns the target T1, Aβ(20-42) globulomer (human).
T1 sequence (peptide): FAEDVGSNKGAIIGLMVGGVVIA
The assay is described as follows: dot blot on nitrocellulose, antibody 0.2 µg/ml.

The target is the same in assay [2]. Description: dot blot, antibody 0.2 µg/ml.

In patent US20170022269A1 one finds binding data, which are given here for six molecules.

Changes are numbered by the printed parent chain. These are yes or no findings as the source states them, for the method shown. Some entries that bind do so weakly or less than the wild type.

B1: monoclonal antibody 5F7 (antibody, V domains shown)
VH: QVQLKQSGAELVRPGTSVKMSCKASGYTFTTFYIHWVKQRPGQGLEWIGMIGPGSGNTYYNEMFKDKATLTVDTSSSTAYMQLSSLTSEDSAVYFCARAKSARAAWFAYWGQGTLVTVSA
VL: DVLMTQTPLSLPVSLGDQASISCRSSQSVVQSNGNTYLEWYLQKPGQSPKLLIYKVSNRFSGVPDRFSGSGSGTDFTLKISRVEAEDLGVYYCFQGSHVPPTFGGGTKLEIKR
In the case of B1, the binding result in assay [1] and in assay [2] was “binds” throughout.

B2: monoclonal antibody 2F2 (antibody, V domains shown)
VH: B1 VH
VL: B1 VL
In the case of B2, the binding result in assay [1] and in assay [2] was “binds” each time.

B3: monoclonal antibody 4B7 (antibody, V domains shown)
VH: EVKLVESGGGLVQPGGSRKLSCAASGFTFSDYEMVWVRQAPGEGLEWVAYISSGSRTIHYADTVKGRFTISRDNPKNTLFLQMSSLRSEDTAMYYCARTLLRLHFDYWGQGTILTVSS
VL: DIVMSQSPSSLAVSVGEKVTMSCRSSQSLFYRSNQKNFLAWYQQKPGQSPKLLIYWASTRESGVPDRFTGSGSGTDFTLTISSVKAEDLAVYYCQQYYSYPWTFGGGTKLEIKR
Turning to B3, the binding result in assay [1] and in assay [2] was “binds” in each case.

B4: monoclonal antibody 7E5 (antibody, V domains shown)
VH: B3 VH
VL: B3 VL
In the case of B4, the binding entry in assay [1] and in assay [2] was “binds” in each case.

B5: monoclonal antibody 10C1 (antibody, V domains shown)
VH: B3 VH with E43K, S52N, R56G
VL: B3 VL with R24K, R32S, S33R, R60G, Y98F
As to B5, the binding entry in assay [1] and in assay [2] was “binds” in each case.

B6: monoclonal antibody 7C6 (antibody, V domains shown)
VH: EVKLVESGGGLVKPGGSLKLSCAASGFTFSSYAMSWVRQTPAKRLEWVASIHNRGTIFYLDSVKGRFTISRDNVRNTLYLQMSSLRSEDTAIYYCTRGRSNSYAMDYWGQGTSVTVSS
VL: DVLVTQSPLSLPVRLGDQASISCRSTQTLVHRNGDTYLEWYLQKPGQSPKSLIYKVSNRFSGVPDRFSGSGSGTDFTLKISRVEAEDLGVYYCFQGSHVPYTFGGGTKLEIKR
Consider B6, for which the binding entry in assay [1] and in assay [2] was “binds” throughout.
